# Assay results published in PubChem BioAssay AID342 (DTP/NCI, 2004).
# The list shows only some results of the screen, not a fair sample: it covers a few groups of compounds. Not every dose and run of a compound is shown. T/C is the treated group as % of the vehicle group. Some T/C values are marked as having no survivor count here; that says nothing about deaths at the dose. Schedule codes are those of the source, taken here to give the interval after Q, in days (D) or hours (H), and the number of doses after X. Some schedule codes hold Z or #, which are not explained here. Additions like (4×) say how often a value occurs here. Some entries hold several experiments; the results are listed from low to high.
# System: Swiss mice, Sarcoma 180 sc, mean tumor weight T/C
# Test: NCI In Vivo Anticancer Drug Screen. Data for tumor model Sarcoma 180 (subcutaneous) in Swiss mice
# Settings: T/C endpoint: mean tumor weight, evaluation day not shown, higher T/C = larger tumour
# Experimental: The antitumor activity of compounds was measured in mice bearing transplantable tumors. Survival or tumor size were measured and the results are expressed as the measurement made in the treated group (T) divided by the measurement made in the vehicle treated control group (C). The tumor model used in this assay is Sarcoma 180 (subcutaneous) in Swiss mice
# [1] = dose: 6.5 mg/kg/injection, schedule: Q#A X014 (ip), vehicle: methylcellulose (MC)
# [2] = dose: 10.0 mg/kg/injection, schedule: Q#A X014 (ip), vehicle: methylcellulose (MC)
# [3] = dose: 15.0 mg/kg/injection, schedule: Q#A X014 (ip), vehicle: methylcellulose (MC)
# [4] = dose: 50.0 mg/kg/injection, schedule: Q#A X014 (ip), vehicle: carboxymethylcellulose (CMC)
compound,measurement,setting,value
O=C(O)COc1cccc(N(CCCl)CCCl)c1,T/C,[1],107 % of control [survivor count not shown]
same,T/C,[2],77 % of control [survivor count not shown]
same,T/C,[3],53 % of control [survivor count not shown]
same,T/C,"dose: 22.0 mg/kg/injection, schedule: Q#A X014 (ip), vehicle: methylcellulose (MC)",37 % of control [survivor count not shown]
same,T/C,"dose: 22.5 mg/kg/injection, schedule: Q#A X014 (ip), vehicle: methylcellulose (MC)",67 [survivor count not shown] and 89 % of control [survivor count not shown]
same,T/C,"dose: 33.0 mg/kg/injection, schedule: Q#A X014 (ip), vehicle: methylcellulose (MC)",13 % of control [survivor count not shown]
same,T/C,"dose: 33.5 mg/kg/injection, schedule: Q#A X014 (ip), vehicle: methylcellulose (MC)",67 % of control [survivor count not shown]
same,T/C,"dose: 50.0 mg/kg/injection, schedule: Q#A X014 (ip), vehicle: methylcellulose (MC)",9 [survivor count not shown] and 37 % of control [survivor count not shown]
same,T/C,"dose: 75.0 mg/kg/injection, schedule: Q#A X014 (ip), vehicle: methylcellulose (MC)",11 % of control [survivor count not shown] (2×)
ClCCNCCCl,T/C,"dose: 6.25 mg/kg/injection, schedule: Q#A X014 (ip), vehicle: carboxymethylcellulose (CMC)",121 % of control [survivor count not shown]
same,T/C,"dose: 12.5 mg/kg/injection, schedule: Q#A X014 (ip), vehicle: carboxymethylcellulose (CMC)",91 % of control [survivor count not shown]
same,T/C,"dose: 25.0 mg/kg/injection, schedule: Q#A X014 (ip), vehicle: carboxymethylcellulose (CMC)",264 % of control [survivor count not shown]
same,T/C,[4],24 % of control [survivor count not shown]
NC1CCCCC1.NP(=O)(O)N(CCCl)CCCl,T/C,"dose: 8.0 mg/kg/injection, schedule: Q01DX007 (ip), vehicle: saline",53 % of control [survivor count not shown]
same,T/C,"dose: 16.0 mg/kg/injection, schedule: Q01DX007 (ip), vehicle: saline",83 % of control [survivor count not shown]
same,T/C,"dose: 32.0 mg/kg/injection, schedule: Q01DX007 (ip), vehicle: saline",43 % of control [survivor count not shown]
same,T/C,"dose: 64.0 mg/kg/injection, schedule: Q01DX007 (ip), vehicle: saline",14 % of control [survivor count not shown]
COc1cccc(N(CCCl)CCCl)c1OC,T/C,"dose: 8.0 mg/kg/injection, schedule: Q#A X014 (ip), vehicle: carboxymethylcellulose (CMC)",90 % of control [survivor count not shown]
same,T/C,"dose: 12.0 mg/kg/injection, schedule: Q#A X014 (ip), vehicle: carboxymethylcellulose (CMC)",102 % of control [survivor count not shown]
same,T/C,"dose: 18.0 mg/kg/injection, schedule: Q#A X014 (ip), vehicle: carboxymethylcellulose (CMC)",99 % of control [survivor count not shown]
same,T/C,"dose: 27.0 mg/kg/injection, schedule: Q#A X014 (ip), vehicle: carboxymethylcellulose (CMC)",113 % of control [survivor count not shown]
same,T/C,"dose: 41.0 mg/kg/injection, schedule: Q#A X014 (ip), vehicle: carboxymethylcellulose (CMC)",68 % of control [survivor count not shown]
NC(Cc1ccccc1N(CCCl)CCCl)C(=O)O (stereo not drawn),T/C,"dose: 0.12 mg/kg/injection, schedule: Q#A X014 (ip), vehicle: methylcellulose (MC)",77 % of control [survivor count not shown]
same,T/C,"dose: 0.25 mg/kg/injection, schedule: Q#A X014 (ip), vehicle: methylcellulose (MC)",54 % of control [survivor count not shown]
same,T/C,"dose: 0.5 mg/kg/injection, schedule: Q#A X014 (ip), vehicle: methylcellulose (MC)",74 % of control [survivor count not shown]
same,T/C,"dose: 1.0 mg/kg/injection, schedule: Q#A X014 (ip), vehicle: methylcellulose (MC)",36 % of control [survivor count not shown]
O=C(O)C(=O)Cc1ccc(N(CCCl)CCCl)cc1,T/C,[1],36 [survivor count not shown] and 77 % of control [survivor count not shown]
same,T/C,[2],12 [survivor count not shown] and 15 % of control [survivor count not shown]
same,T/C,[3],7 % of control [survivor count not shown]
CCCCOc1ccc(N(CCCl)CCCl)cc1,T/C,"dose: 7.5 mg/kg/injection, schedule: Q#A X014 (ip), vehicle: methylcellulose (MC)",60 % of control [survivor count not shown]
same,T/C,"dose: 10.0 mg/kg/injection, schedule: Q#A X014 (ip), vehicle: carboxymethylcellulose (CMC)",78 % of control [survivor count not shown]
same,T/C,"dose: 11.0 mg/kg/injection, schedule: Q#A X014 (ip), vehicle: methylcellulose (MC)",19 % of control [survivor count not shown]
same,T/C,"dose: 14.7 mg/kg/injection, schedule: Q01DX007 (ip), vehicle: carboxymethylcellulose (CMC)",30 % of control [survivor count not shown]
same,T/C,"dose: 14.75 mg/kg/injection, schedule: Q#A X014 (ip), vehicle: methylcellulose (MC)",113 % of control [survivor count not shown]
same,T/C,"dose: 16.5 mg/kg/injection, schedule: Q#A X014 (ip), vehicle: methylcellulose (MC)",14 % of control [survivor count not shown]
same,T/C,"dose: 22.0 mg/kg/injection, schedule: Q01DX007 (ip), vehicle: carboxymethylcellulose (CMC)",20 % of control [survivor count not shown]
same,T/C,"dose: 22.0 mg/kg/injection, schedule: Q#A X014 (ip), vehicle: carboxymethylcellulose (CMC)",75 % of control [survivor count not shown]
same,T/C,"dose: 24.75 mg/kg/injection, schedule: Q#A X014 (ip), vehicle: methylcellulose (MC)",5 % of control [survivor count not shown]
same,T/C,"dose: 25.0 mg/kg/injection, schedule: Q#A X014 (ip), vehicle: methylcellulose (MC)",11 % of control [survivor count not shown]
same,T/C,"dose: 33.0 mg/kg/injection, schedule: Q01DX007 (ip), vehicle: carboxymethylcellulose (CMC)",8 % of control [survivor count not shown]
same,T/C,"dose: 33.0 mg/kg/injection, schedule: Q#A X014 (ip), vehicle: carboxymethylcellulose (CMC)",72 % of control [survivor count not shown]
same,T/C,"dose: 36.85 mg/kg/injection, schedule: Q#A X014 (ip), vehicle: methylcellulose (MC)",8 [survivor count not shown] and 79 % of control [survivor count not shown]
same,T/C,"dose: 49.6 mg/kg/injection, schedule: Q01DX007 (ip), vehicle: carboxymethylcellulose (CMC)",3 % of control [survivor count not shown]
same,T/C,[4],87 % of control [survivor count not shown]
same,T/C,"dose: 55.0 mg/kg/injection, schedule: Q#A X014 (ip), vehicle: methylcellulose (MC)","4 [survivor count not shown], 17 [survivor count not shown], 31 [survivor count not shown], 84 % of control [survivor count not shown]"
same,T/C,"dose: 74.0 mg/kg/injection, schedule: Q01DX007 (ip), vehicle: saline",10 % of control [survivor count not shown]
same,T/C,"dose: 75.0 mg/kg/injection, schedule: Q#A X014 (ip), vehicle: carboxymethylcellulose (CMC)",98 % of control [survivor count not shown]
same,T/C,"dose: 84.0 mg/kg/injection, schedule: Q#A X014 (ip), vehicle: methylcellulose (MC)",11 [survivor count not shown] and 55 % of control [survivor count not shown]
same,T/C,"dose: 110.0 mg/kg/injection, schedule: Q01DX007 (ip), vehicle: saline",15 % of control [survivor count not shown]
ClCCNC(CCl)CCl,T/C,"dose: 20.0 mg/kg/injection, schedule: Q#A X014 (ip), vehicle: carboxymethylcellulose (CMC)",50 % of control [survivor count not shown]
same,T/C,"dose: 30.0 mg/kg/injection, schedule: Q#A X014 (ip), vehicle: carboxymethylcellulose (CMC)",43 % of control [survivor count not shown]
same,T/C,"dose: 47.5 mg/kg/injection, schedule: Q#A X014 (ip), vehicle: carboxymethylcellulose (CMC)",39 % of control [survivor count not shown]
same,T/C,"dose: 70.0 mg/kg/injection, schedule: Q#A X014 (ip), vehicle: carboxymethylcellulose (CMC)",29 % of control [survivor count not shown]
